Data on 5 molecules can be found in article PMC12499447.

The target of test [1] is T1, Apoptosis inhibitor 5 (API5), endogenous (human (endogenous in A549 and HEK293T)) (UniProt Q9BZZ5).
T1 sequence: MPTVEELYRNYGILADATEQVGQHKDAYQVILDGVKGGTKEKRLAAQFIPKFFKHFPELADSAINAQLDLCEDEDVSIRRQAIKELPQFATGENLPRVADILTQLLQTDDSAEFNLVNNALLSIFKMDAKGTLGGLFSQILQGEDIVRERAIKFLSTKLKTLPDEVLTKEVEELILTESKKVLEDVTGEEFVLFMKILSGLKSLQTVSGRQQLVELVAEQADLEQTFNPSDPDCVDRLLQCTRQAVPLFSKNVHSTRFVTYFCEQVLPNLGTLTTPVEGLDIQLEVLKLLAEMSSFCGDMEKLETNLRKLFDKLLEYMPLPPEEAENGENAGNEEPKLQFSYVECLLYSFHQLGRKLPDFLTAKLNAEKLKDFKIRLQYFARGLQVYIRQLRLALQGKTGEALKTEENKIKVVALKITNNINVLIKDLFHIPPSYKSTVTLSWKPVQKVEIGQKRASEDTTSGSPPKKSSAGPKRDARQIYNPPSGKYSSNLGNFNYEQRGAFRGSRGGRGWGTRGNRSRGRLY
The test can be described thus: co-IP.

The target in test [2] is T2, API5^WT, exogenous (tag not told for these experiments) (human) (UniProt Q9BZZ5).
T2 sequence: T1 sequence
The test is described as follows: co-IP; candidate kinases predicted by GPS 6.0 screened against API5 (Figures S7 and S8B); constructs and cells not shown.

The target in test [3] is T3, Retinoic acid-inducible gene-I (RIG-I), endogenous (human (endogenous in A549)) (UniProt O95786).
T3 sequence: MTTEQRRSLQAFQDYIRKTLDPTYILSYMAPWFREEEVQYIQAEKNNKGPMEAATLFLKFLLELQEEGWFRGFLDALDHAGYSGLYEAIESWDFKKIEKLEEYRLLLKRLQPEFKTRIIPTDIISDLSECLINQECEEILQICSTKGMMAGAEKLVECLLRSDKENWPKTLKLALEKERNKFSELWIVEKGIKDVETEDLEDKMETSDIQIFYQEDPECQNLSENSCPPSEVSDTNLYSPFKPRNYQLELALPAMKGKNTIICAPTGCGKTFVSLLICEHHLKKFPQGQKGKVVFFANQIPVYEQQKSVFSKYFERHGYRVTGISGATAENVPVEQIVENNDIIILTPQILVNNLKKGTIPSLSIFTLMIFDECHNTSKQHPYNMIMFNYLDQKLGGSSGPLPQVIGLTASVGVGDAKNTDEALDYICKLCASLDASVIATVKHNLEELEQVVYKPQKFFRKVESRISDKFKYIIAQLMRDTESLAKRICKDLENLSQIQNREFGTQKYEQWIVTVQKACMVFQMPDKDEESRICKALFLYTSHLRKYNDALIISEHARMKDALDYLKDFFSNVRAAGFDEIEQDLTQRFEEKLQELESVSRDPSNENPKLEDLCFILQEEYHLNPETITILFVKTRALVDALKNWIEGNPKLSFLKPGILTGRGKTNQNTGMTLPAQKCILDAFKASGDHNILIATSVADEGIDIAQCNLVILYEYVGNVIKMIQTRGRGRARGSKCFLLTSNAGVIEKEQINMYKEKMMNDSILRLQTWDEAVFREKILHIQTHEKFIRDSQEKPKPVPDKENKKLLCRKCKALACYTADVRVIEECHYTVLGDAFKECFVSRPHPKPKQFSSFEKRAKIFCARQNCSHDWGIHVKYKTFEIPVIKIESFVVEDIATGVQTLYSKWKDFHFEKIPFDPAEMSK
The test can be described thus: co-IP; A549 cells infected with SeV (25 HA units) for 12 h or not; rabbit RIG-I or MDA5 antibody or rabbit IgG; endogenous proteins, immunoblot. A general note: Immunoblotting shows a protein as a band on a membrane.

Test [4] addresses T4, Melanoma differentiation-associated protein-5 (MDA5), endogenous (human (endogenous in A549)) (UniProt Q9BYX4).
T4 sequence: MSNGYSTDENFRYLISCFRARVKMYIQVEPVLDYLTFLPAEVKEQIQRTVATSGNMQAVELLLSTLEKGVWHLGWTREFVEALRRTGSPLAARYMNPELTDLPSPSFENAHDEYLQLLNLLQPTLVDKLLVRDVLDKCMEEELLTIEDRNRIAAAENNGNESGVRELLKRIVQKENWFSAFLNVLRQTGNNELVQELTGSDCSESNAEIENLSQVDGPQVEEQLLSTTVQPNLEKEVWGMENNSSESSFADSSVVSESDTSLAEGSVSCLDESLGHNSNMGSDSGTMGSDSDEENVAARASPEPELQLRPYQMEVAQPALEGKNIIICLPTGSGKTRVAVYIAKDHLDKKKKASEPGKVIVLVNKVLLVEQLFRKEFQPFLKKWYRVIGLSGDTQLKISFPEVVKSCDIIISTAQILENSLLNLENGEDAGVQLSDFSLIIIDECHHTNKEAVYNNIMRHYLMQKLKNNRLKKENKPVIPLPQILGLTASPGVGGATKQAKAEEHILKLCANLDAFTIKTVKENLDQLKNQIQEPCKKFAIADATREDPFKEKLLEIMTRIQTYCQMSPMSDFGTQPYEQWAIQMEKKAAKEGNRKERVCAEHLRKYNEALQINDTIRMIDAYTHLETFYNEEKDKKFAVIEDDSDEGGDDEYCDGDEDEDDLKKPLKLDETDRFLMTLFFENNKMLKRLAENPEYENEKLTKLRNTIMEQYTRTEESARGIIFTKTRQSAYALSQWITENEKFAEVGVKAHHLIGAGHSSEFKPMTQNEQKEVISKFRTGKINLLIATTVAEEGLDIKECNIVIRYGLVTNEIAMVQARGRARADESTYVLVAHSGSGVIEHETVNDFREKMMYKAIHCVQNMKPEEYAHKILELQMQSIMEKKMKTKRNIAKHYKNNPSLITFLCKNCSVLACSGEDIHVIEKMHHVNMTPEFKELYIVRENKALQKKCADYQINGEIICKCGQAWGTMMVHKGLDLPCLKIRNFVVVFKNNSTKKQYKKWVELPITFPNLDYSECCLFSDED
The test is described as above.

The target of test [5] is p62/SQSTM1, endogenous (human (endogenous in A549)) (UniProt Q13501). The test can be described thus: co-IP.
Test [6] addresses p62, exogenous (tag not told for these experiments) (human (amplified from HEK293T cells)) (UniProt Q13501). The test is described as follows: co-IP.
Test [7] deals with T5, RIG-I (construct of Figures S4 and S21 not shown) (UniProt O95786).
T5 sequence: T3 sequence
The test can be described thus: co-IP.

For test [8], the target named is T6, MDA5 (construct of Figures S4 and S21 not shown) (UniProt Q9BYX4).
T6 sequence: T4 sequence
The test is described as follows: co-IP.

These are yes or no findings as the source states them, for the method shown. In cells and extracts the contact can be indirect. Some results given as binding are weak or reduced against the parent protein; the word gives no strength. For part of these data: Sequences can lack the tags named with a protein.

B1: Retinoic acid-inducible gene-I (RIG-I), endogenous (protein, UniProt O95786 1-925)
chain: T3 sequence
With B1, the binding result in test [1] is reported as “binds”.

B2: PRKCI (candidate kinase in the co-IP screen) (enzyme, UniProt P41743 1-596)
chain: MPTQRDSSTMSHTVAGGGSGDHSHQVRVKAYYRGDIMITHFEPSISFEGLCNEVRDMCSFDNEQLFTMKWIDEEGDPCTVSSQLELEEAFRLYELNKDSELLIHVFPCVPERPGMPCPGEDKSIYRRGARRWRKLYCANGHTFQAKRFNRRAHCAICTDRIWGLGRQGYKCINCKLLVHKKCHKLVTIECGRHSLPQEPVMPMDQSSMHSDHAQTVIPYNPSSHESLDQVGEEKEAMNTRESGKASSSLGLQDFDLLRVIGRGSYAKVLLVRLKKTDRIYAMKVVKKELVNDDEDIDWVQTEKHVFEQASNHPFLVGLHSCFQTESRLFFVIEYVNGGDLMFHMQRQRKLPEEHARFYSAEISLALNYLHERGIIYRDLKLDNVLLDSEGHIKLTDYGMCKEGLRPGDTTSTFCGTPNYIAPEILRGEDYGFSVDWWALGVLMFEMMAGRSPFDIVGSSDNPDQNTEDYLFQVILEKQIRIPRSLSVKAASVLKSFLNKDPKERLGCHPQTGFADIQGHPFFRNVDWDMMEQKQVVPPFKPNISGEFGLDNFDSQFTNEPVQLTPDDDDIVRKIDQSEFEGFEYINPLLMSAEECV
B2: the binding entry in test [2] is reported as “binds”.

B3: Melanoma differentiation-associated protein-5 (MDA5), endogenous (protein, UniProt Q9BYX4 1-1025)
chain: T4 sequence
Turning to B3, the binding result in test [1] is “binds”.

B4: Phosphorylated API5 protein (pAPI5, phospho-S464), endogenous (protein, UniProt Q9BZZ5 1-524)
chain: T1 sequence
modifications: phosphoserine at 464
B4: the binding result in test [3], in test [4] and in test [5] was “binds” throughout.

B5: API5^WT, exogenous (tag not told for these experiments) (protein, UniProt Q9BZZ5 1-524)
chain: T1 sequence
With B5, the binding result in test [6], in test [7] and in test [8] was “binds” each time.
